No end group written: not given here.
These sequences were tested on Leishmania donovani intracellular amastigotes (assay: Intracellular leishmanicidal activity in infected THP-1 macrophages). Settings: selectivity index = mean THP-1 CC50 / intracellular amastigote IC50.
Format: cell-based
For “AGKEKIRQYLKNEIKKKGRKAVWAW [Syn-safencin 77]”, the “Intracellular amastigotes SI” value was 12.59.
“AGKETIRKYLKNEIKKKGRKAVIAW [Syn-safencin 6]” was tested, and the “Intracellular amastigotes SI” value was 6.74.
“AGKETIRKYLKNEIKKKGRKAVWAW [Syn-safencin 78]” was tested, and the “Intracellular amastigotes SI” value was 5.14.
With “AGKETIRQKLKNEIKKKGRKAVIAW [Syn-safencin 7]” the “Intracellular amastigotes SI” value was 9.82.
“AGKETIRQYLKNEIKKKGRKAVWAW [Syn-safencin 73]” was tested, and the “Intracellular amastigotes SI” value was 5.97.
“AGKKTIRQYLKNEIKKKGRKAVIWW [Syn-safencin 82]” was tested, and the “Intracellular amastigotes SI” value was 19.55.
In the case of “AWKETIFQRLKKKIQEKGKRATIAW [Syn-larvacin 35]”, the “Intracellular amastigotes SI” value was 0.85.

From article PMC9769502 (Microbiology Spectrum, 2022)
